Experimental data taken from paper PMC11649694.

Sequences of proteins named here, by UniProt entry; tags and fusion partners are left off. A change or cut given only in a name is not applied to a line headed by its entry.
UniProt P10074: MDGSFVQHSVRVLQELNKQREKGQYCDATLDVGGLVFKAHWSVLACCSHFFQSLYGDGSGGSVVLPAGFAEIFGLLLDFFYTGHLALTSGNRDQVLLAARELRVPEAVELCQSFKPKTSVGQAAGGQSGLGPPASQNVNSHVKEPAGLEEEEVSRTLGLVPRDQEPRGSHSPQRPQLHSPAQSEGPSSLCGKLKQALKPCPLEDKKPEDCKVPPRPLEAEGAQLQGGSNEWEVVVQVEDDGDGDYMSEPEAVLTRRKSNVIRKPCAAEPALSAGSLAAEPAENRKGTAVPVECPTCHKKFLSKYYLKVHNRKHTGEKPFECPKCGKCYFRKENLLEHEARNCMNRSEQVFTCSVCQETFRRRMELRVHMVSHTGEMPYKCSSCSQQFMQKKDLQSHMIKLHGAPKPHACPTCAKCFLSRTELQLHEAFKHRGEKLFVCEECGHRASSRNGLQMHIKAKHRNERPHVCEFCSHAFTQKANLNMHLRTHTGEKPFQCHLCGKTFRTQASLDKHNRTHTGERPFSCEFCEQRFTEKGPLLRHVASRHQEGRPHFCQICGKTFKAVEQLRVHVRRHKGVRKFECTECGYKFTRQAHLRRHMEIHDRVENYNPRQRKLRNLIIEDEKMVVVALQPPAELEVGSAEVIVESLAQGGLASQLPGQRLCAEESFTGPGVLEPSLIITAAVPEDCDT

Assays:
Assay in all cases: DNA pull-down/immunoblot
[1] = target: ZBTB48 endogenous (U2OS nuclear extract) (Homo sapiens (U2OS cells)) (UniProt P10074); settings: Pull-down: 150 mM NaCl, 50 mM Tris-HCl pH 7.5, 5 mM MgCl2, 0.5% Igepal CA-630, 1 mM DTT, 20 ug salmon sperm DNA, 4 C 2 h; protein in an extract; label: desthiobiotin-dATP
FLAG-ZBTB48 WT = FLAG-ZBTB48 WT (UniProt P10074); settings: Pull-down: 150 mM NaCl, 50 mM Tris-HCl pH 7.5, 5 mM MgCl2, 0.5% Igepal CA-630, 1 mM DTT, 20 ug salmon sperm DNA, 4 C 2 h; protein in a lysate after overexpression; residues 1-688; protein details: FLAG; label: desthiobiotin-dATP
[2] = target: ZBTB48 endogenous (SUDHL4 nuclear extract) (Homo sapiens (SUDHL4 cells)) (UniProt P10074); settings: Pull-down: 150 mM NaCl, 50 mM Tris-HCl pH 7.5, 5 mM MgCl2, 0.5% Igepal CA-630, 1 mM DTT, 20 ug salmon sperm DNA, 4 C 2 h; protein in an extract; label: desthiobiotin-dATP

ATCCCTCACTTGTTTCTTATCCCTCACTTGTTTCTTATCCCTCACTTGTTTCTT / ATAAGAAACAAGTGAGGGATAAGAAACAAGTGAGGGATAAGAAACAAGTGAGGG [CIITA pIII probe e.3 (listed as f.3 in Dataset EV5)]
binding result [1]: no binding

CTGCCAGACTCCGGGAGCTGCTGCCTGGCTGGGATTCCTACACAATGCGTTGCCTGGCTC / AGGAGCCAGGCAACGCATTGTGTAGGAATCCCAGCCAGGCAGCAGCTCCCGGAGTCTGGC [CIITA pIII probe 8]
binding result [1]: no binding

GTTTTTTTGATGATCCCTCACTTGTTTCTTGTTTTTTTGATGATCCCTCACTTGTTTCTT / ACAAGAAACAAGTGAGGGATCATCAAAAAAACAAGAAACAAGTGAGGGATCATCAAAAAA [CIITA pIII probe e (listed as f in Dataset EV5)]
binding result [1]: binds

GTGTGGTAAAATTAGGTGTGGTAAAATTAGGTGTGGTAAAATTAGGTGTGGTAAAATTAG / ACCTAATTTTACCACACCTAATTTTACCACACCTAATTTTACCACACCTAATTTTACCAC [CIITA pIII probe b.2]
binding result [1]: no binding

GTGAGTGTGAGTGTGAGTGTGAGTGTGAGTGTGAGTGTGAGTGTGAGTGTGAGTGTGAGT / ACACTCACACTCACACTCACACTCACACTCACACTCACACTCACACTCACACTCACACTC [GTGAGT scramble control]
binding result [1]: no binding | binding result (FLAG-ZBTB48 WT): no binding | binding result [2]: no binding

TTAGAGGGTGTTCAGAAACAGAAATCTGACCGCTTGGG / AACCCAAGCGGTCAGATTTCTGTTTCTGAACACCCTCT [CIITA pIII probe c]
binding result [1]: no binding

GTAAAATTAGAGGGTGGTAAAATTAGAGGGTGGTAAAATTAGAGGGTG / ACCACCCTCTAATTTTACCACCCTCTAATTTTACCACCCTCTAATTTT [CIITA pIII probe b.3]
binding result [1]: no binding

CTGACCGCTTGGGGCCACCTTGCAGGGAGAGTTTTTTTGATGATCCCTCACTTGTTTCTT / AGAAGAAACAAGTGAGGGATCATCAAAAAAACTCTCCCTGCAAGGTGGCCCCAAGCGGTC [CIITA pIII probe 4]
binding result [1]: binds

CTTAAGGGAGTGTGGTAAAATTAGAGGGTGTTCAGAAACAGAAATCTGACCGCTTGGGGC / AGGCCCCAAGCGGTCAGATTTCTGTTTCTGAACACCCTCTAATTTTACCACACTCCCTTA [CIITA pIII probe 3]
binding result [1]: binds

GTGACTGGTTAGTGATGAGGCTAGTGATGAGGCTGTGTGCTTCTGAGCTGGGCATCCGAA / ACTTCGGATGCCCAGCTCAGAAGCACACAGCCTCATCACTAGCCTCATCACTAACCAGTC [CIITA pIII probe 6]
binding result [1]: no binding

GTTTTTTTGATGATCGTTTTTTTGATGATCGTTTTTTTGATGATCGTTTTTTTGATGATC / ACGATCATCAAAAAAACGATCATCAAAAAAACGATCATCAAAAAAACGATCATCAAAAAA [CIITA pIII probe e.1 (listed as f.1 in Dataset EV5)]
binding result [1]: no binding

Where cells or extracts were used, other partners may take part. No signal at the amounts used counts as a negative. At least one verdict was read from the data and is not stated in words by the source. For some of these results: For at least one entry, the source does not settle the construct or the ends of the probe.
